Results published in patent US20110070184A1, “METHODS AND COMPOSITIONS FOR TREATING ATHEROSCLEROSIS AND RELATED CONDIDTIONS” (CAROLUS THERPEUTICS, INC., priority 2008, published 2011).
No constants are given. Whether binding was seen depends on the method and setting. In cells and extracts the contact can be indirect. Some entries that bind do so weakly or less than the wild type.

Protein sequences, listed by entry. Tags and fused reporters are not part of them.
UniProt P25025: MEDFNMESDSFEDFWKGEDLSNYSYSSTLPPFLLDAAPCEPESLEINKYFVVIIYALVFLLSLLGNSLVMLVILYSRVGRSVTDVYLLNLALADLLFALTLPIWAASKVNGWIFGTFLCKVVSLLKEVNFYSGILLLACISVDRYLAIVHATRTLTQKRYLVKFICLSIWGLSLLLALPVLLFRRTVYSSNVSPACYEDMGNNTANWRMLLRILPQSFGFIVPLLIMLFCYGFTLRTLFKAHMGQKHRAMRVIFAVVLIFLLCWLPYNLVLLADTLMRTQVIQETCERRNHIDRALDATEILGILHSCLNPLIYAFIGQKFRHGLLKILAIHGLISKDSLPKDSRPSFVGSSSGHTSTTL

Experiments:
[1] = biological target: T1, CD74 (endogenous mouse CD74 in L1.2-CXCR2 transfectants) (mouse) (UniProt P04441); test: co-immunoprecipitation with an antibody to CXCR2 from L1.2-CXCR2 cells, western blot with antibody to mouse CD74
T1 sequence (looked up): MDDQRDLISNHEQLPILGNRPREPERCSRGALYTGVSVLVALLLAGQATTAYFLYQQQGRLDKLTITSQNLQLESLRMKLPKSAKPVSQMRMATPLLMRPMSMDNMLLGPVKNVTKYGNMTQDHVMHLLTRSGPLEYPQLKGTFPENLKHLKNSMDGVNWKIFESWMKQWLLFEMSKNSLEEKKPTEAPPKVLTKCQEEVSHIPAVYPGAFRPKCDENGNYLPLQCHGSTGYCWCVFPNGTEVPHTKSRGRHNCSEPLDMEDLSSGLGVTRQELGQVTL

[2] = biological target: T1, CD74 (endogenous mouse CD74 in L1.2-CXCR2 transfectants) (mouse); test: co-immunoprecipitation from L1.2-CXCR2 transfectants

binding [1]: binds
binding [2]: binds
Substance: CXCR2 (human CXCR2 expressed on transfectants) (from UniProt P25025 1-360) (receptor)
